Test results published in the supplement of paper PMC12823440, “Inhibitors supercharge kinase turnover through native proteolytic circuits” (Nature, 2025).
This is one part of the list. Hit calls seldom repeat between salt and free forms of one compound.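 In K562 cells expressing nanoluciferase-fused kinases, luminescence was recorded at 4 h intervals between 2 and 18 h, normalized as percent of control with DMSO at 100% and a positive control at 0%. A significant (2 sigma) signal drop marks a time point as decreased. The authors' rule for a hit is not shown and takes in more than the number of time points.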

Sequences of proteins named here, by UniProt entry; tags and fusion partners are left off. A change or cut given only in a name is not applied to a line headed by its entry.
UniProt Q92630: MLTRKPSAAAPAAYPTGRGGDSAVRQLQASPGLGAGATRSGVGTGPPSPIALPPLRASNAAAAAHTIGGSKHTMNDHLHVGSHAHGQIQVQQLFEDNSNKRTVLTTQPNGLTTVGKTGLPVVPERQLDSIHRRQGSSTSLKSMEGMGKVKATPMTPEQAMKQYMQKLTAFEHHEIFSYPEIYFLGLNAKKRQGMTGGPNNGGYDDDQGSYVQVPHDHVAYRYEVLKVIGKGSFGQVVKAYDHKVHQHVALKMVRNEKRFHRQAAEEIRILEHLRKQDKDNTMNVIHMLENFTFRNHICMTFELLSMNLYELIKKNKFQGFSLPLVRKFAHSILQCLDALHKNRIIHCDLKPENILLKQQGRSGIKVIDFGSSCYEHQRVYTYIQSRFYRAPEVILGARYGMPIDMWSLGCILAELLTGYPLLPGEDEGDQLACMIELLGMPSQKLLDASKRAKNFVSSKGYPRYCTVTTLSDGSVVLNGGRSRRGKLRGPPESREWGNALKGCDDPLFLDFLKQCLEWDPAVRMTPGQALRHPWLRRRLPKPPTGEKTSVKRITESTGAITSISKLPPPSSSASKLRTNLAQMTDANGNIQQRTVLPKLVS

Target: DYRK2 (UniProt Q92630)
Experiment: number of time points (of 5) at which kinase-Nluc abundance scored as decreased, DMSO-normalised (count); higher = more persistent destabilization
Conditions: K562; 2-18 h

Row | Compound | number of time points
1 | N#Cc1ccc2[nH]c(O)c(-c3ccc(CN4CCOCC4)cn3)c2c1 (10 µM) | 0
2 | CCN(CC)CCCCNc1ncc2cc(-c3cc(OC)cc(OC)c3)c(NC(=O)NC(C)(C)C)nc2n1 (10 µM) | 0
3 | Oc1ccc(-c2nc(-c3ccc(F)cc3)c(-c3ccncc3)[nH]2)cc1 (2.5 µM) | 0
4 | O=C1NCCc2[nH]c(-c3ccnc(-c4cnc5ccccc5c4)c3)cc21 (10 µM) | 0
5 | Cc1cc(N2CCOCC2)cc2[nH]c(-c3c(NC[C@@H](O)c4cccc(Cl)c4)cc[nH]c3=O)nc12 (10 µM) | 4
6 | COc1cc(OC)cc(-c2cc3cnc(N)nc3nc2NC(=O)NC(C)(C)C)c1 (10 µM) | 0
7 | Cc1ccc(NC(=O)Nc2nnc(Sc3ncnc4cc(OCCCN5CCOCC5)ccc34)s2)cc1 (10 µM) | 0
8 | N#C/C(=C\c1ccc(O)c(O)c1)C(=O)NCCCc1ccccc1 (10 µM) | 0
9 | Cc1cccc([C@@H](CO)NC(=O)[C@@H](C)N2Cc3ccc(-c4nc(NC5CCOCC5)ncc4Cl)cc3C2=O)c1 [ERK1/2 inhibitor 1] (10 µM) | 0
10 | CCOc1ccn(-c2ccc(F)cc2)c(=O)c1C(=O)Nc1ccc(Oc2ccnc(N)c2Cl)c(F)c1 (10 µM) | 4
11 | O=c1cc(N2CCOCC2)oc2c(-c3ccccc3)cccc12 (10 µM) | 0
12 | O=c1oc2c(O)c(O)cc3c(=O)oc4c(O)c(O)cc1c4c23 [Ellagic acid] (10 µM) | 0
13 | C=CC(=O)Nc1ccc2ncnc(Nc3cccc(Br)c3)c2c1 (10 µM) | 4
14 | Cc1c(Cn2c(C)nc3c(C(=O)O)cc(N4CCOCC4)cc32)cccc1C(F)(F)F (10 µM) | 0
15 | Cc1c[nH]c2nccc(Oc3c(F)cc(Nc4cc(Cl)nc(N)n4)cc3F)c12 (10 µM) | 1
16 | CC(C)CC(=O)Nc1n[nH]c2c1CN(C(=O)C1CCN(C)CC1)C2(C)C (2.5 µM) | 0
17 | CCN(CCO)CCCOc1ccc2c(Nc3cc(CC(=O)Nc4cccc(F)c4)[nH]n3)ncnc2c1 [Barasertib-HQPA] (10 µM) | 0
18 | N#C/C(=C\c1ccc(O)c(O)c1)C(=O)NCc1ccccc1 (10 µM) | 0

Row | Compound | number of time points
19 | COc1nccc(-c2c(-c3ccc(F)cc3)ncn2C2CCC(O)CC2)n1 (stereo not given) (10 µM) | 0
20 | O=c1c(-c2ccc(O)cc2)coc2cc(O)cc(O)c12 [Genistein] (10 µM) | 0
21 | CCOc1cc2ncc(C#N)c(Nc3ccc(OCc4ccccn4)c(Cl)c3)c2cc1NC(=O)/C=C/CN(C)C [Neratinib] (10 µM) | 0
22 | CN1CCC(Nc2ncc3ncnc(Nc4ccc(F)c(Cl)c4)c3n2)CC1 [Falnidamol] (10 µM) | 0
23 | O=c1c(O)c(-c2ccc(O)c(O)c2)oc2cc(O)cc(O)c12 [Quercetin (dihydrate)] (10 µM) | 1
24 | COc1ccc(C=C(C#N)c2cccnc2)cc1OC (10 µM) | 0
25 | Nc1ncnc2c1c(-c1ccc(Oc3ccccc3)cc1)cn2C1CCCC1 (2.5 µM) | 2
26 | COc1cc2nc(C)nc(N[C@H](C)c3cc(N)cc(C(F)(F)F)c3)c2cc1O[C@H]1CCOC1 (10 µM) | 0
27 | N#CC(=Cc1ccc(O)c(O)c1)C(=O)NCc1ccccc1 (mixture of isomers) (10 µM) | 0
28 | O=C1Cc2c([nH]c3ccc(Br)cc23)-c2ncccc2N1 [1-Azakenpaullone] (10 µM) | 0
29 | COc1cc2c(Nc3ccc(Br)cc3F)ncnc2cc1OCCn1ccnn1 (10 µM) | 0
30 | CNc1nc(-c2ccc3c(N)n[nH]c3c2)cc(N2C[C@@H](C(=O)NC3CCCCC3)CC[C@H]2C)n1 (10 µM) | 0
31 | Cc1cc(F)c(C(=O)Nc2cccc(-c3nncn3C(C)C)n2)cc1-n1cnc(C2CC2)c1 [Selonsertib] (10 µM) | 0
32 | COc1cc(C)c(Sc2cnc(NC(=O)c3ccc(CNC(C)C(C)(C)C)cc3)s2)cc1C(=O)N1CCN(C(C)=O)CC1 (stereo not given) (2.5 µM) | 0
33 | CCN(CC)CCCCNc1ncc2cc(-c3c(Cl)cccc3Cl)c(NC(=O)NC(C)(C)C)nc2n1 (2.5 µM) | 0
34 | COc1cc(C=C(C#N)C(N)=O)cc(CSc2nc3ccccc3s2)c1O (10 µM) | 0
35 | C[C@]1(O)C[C@@H](c2nc(-c3ccc4ccc(-c5ccccc5)nc4c3)c3c(N)nccn32)C1 [Linsitinib] (2.5 µM) | 0

Shown as a markdown table: 2 of the compounds above

| Row | Compound | number of time points |
| --- | --- | --- |
| 24 | COc1ccc(C=C(C#N)c2cccnc2)cc1OC (10 µM) | 0 |
| 25 | Nc1ncnc2c1c(-c1ccc(Oc3ccccc3)cc1)cn2C1CCCC1 (2.5 µM) | 2 |
